From patent publication US20130280758A1 (Regeneron, published 2013)
Results are given in words; binding and its absence hold for the method and conditions named. Some binding calls cover weakened binding; strength is not graded here.

Target: rat Tie-2 (rTie-2), as used in BIAcore analysis (rat)
Experiment: BIAcore, reference molecule

B1: FD1-Fc-FD1 (Fc fusion, human)
chain (part 1 of 2): FRDCADVYQAGFNKSGIYTIYINNMPEPKKVFCNMDVNGGGWTVIQHREDGSLDFQRGWKEYKMGFGNPSGEYWLGNEFIFAITSQRQYMLRIELMDWEGNRAYSQYDRFHIGNEKQNYRLYLKGHTGTAGKQSSLILHGADFSTKDADNDNCMCKCALMLTGGWWFDACGPSNLNGMFYTAGQNHGKLNGIKWHYFKGPSYSLRSTTMMIRPLDF
chain (part 2 of 2): B1 chain (part 1 of 2)
notes: domain: fibrinogen domain of Ang1; also called BA1; not shown: Fc
For B1, the binding was “binds”.
